The other results are listed elsewhere or left out.

The target of this assay is T1, OsSMF1 (Oryza sativa, UniProt Q6ZLB0 1-436).
T1 sequence: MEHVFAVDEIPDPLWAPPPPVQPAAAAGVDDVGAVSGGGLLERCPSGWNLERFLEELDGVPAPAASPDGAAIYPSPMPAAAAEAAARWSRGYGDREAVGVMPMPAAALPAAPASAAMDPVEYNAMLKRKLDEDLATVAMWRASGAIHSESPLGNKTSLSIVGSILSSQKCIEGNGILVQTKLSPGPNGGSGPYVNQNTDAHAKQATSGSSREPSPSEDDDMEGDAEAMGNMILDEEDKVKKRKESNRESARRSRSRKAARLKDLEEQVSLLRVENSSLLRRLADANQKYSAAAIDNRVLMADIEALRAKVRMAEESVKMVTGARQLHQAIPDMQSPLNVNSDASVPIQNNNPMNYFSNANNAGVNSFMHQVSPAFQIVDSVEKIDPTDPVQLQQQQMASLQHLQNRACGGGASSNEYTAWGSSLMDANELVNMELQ
Description: protein-binding microarray (RPBM); PBS, 2% BSA, 51.3 ng/ul salmon testes DNA, 50 uM zinc acetate, 200 nM TF, 25 C, 1 h; high values mean tight binding. Conditions: protein: recombinant; tags: N-terminal polyhistidine and DsRed monomer fusion (pET32a); chain copies: 2; label: CyDye5-dUTP incorporated in the synthesized complementary strand; 3' TTTTT single-stranded linker to array surface; dsDNA, one strand shown. In short, it runs like this:
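Binding signal here means per-feature fluorescence intensity in arbitrary units. The values were read on an Axon 4000B scanner after a custom Agilent array, double-stranded by primer extension with Cy5-dUTP, was incubated with 200 nM protein at 25 °C for 1 h in PBS with 2% BSA, salmon testes DNA and 50 µM zinc acetate, then washed. The proteins were transcription factors with an N-terminal polyhistidine tag and DsRed, expressed in E. coli BL21-CodonPlus and purified on Ni–NTA.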
As to “CTTCCTCTCTACTAATCCAAGTCACAGGTCGGCCATGACCCGGAGTCACCTAGTGCAG”, the binding signal was 4720 fluorescence intensity (a.u.).

On to “GTAGTACTAGCTTTGTGGCTTCCGCTGCTTCTGTCACTGCCGGAGTCACCTAGTGCAG”, for which the binding signal is 3210 fluorescence intensity (a.u.).

Regarding “ACTGCCGCTACCCTCTCTTTAGTCCCGGTTATTTCACCTGCGGAGTCACCTAGTGCAG”, the binding signal was 31900 fluorescence intensity (a.u.).

Take “TCCCATTTAGTCCTAGGATTCATAGTTTGACAAAGTGAGTCGGAGTCACCTAGTGCAG”: the binding signal was 6570 fluorescence intensity (a.u.).

As for “CTTCGCCTCAACTGCCACGGTGCCGTCGTCCTCCTCCATGCGGAGTCACCTAGTGCAG”, the binding signal is 5270 fluorescence intensity (a.u.).

Regarding “CTGTCTGGTTCAACAAGATCGCTGACAAGACCGTCATCTGCGGAGTCACCTAGTGCAG”, the binding signal is 3790 fluorescence intensity (a.u.).

In the case of “TCACTGACAACTGTGGCCCACAGTCTACCCACGGCGGCAGCGGAGTCACCTAGTGCAG”, the binding signal is 3410 fluorescence intensity (a.u.).

“TCACGCTCTTCTTGTGTCCCTCCACGTCGCGGTGCCCGTGCGGAGTCACCTAGTGCAG”: the binding signal was 5050 fluorescence intensity (a.u.).

Turning to “AACACGTTACAGTTTCCTACATACAATATAGCACTTCATCCGGAGTCACCTAGTGCAG”, the binding signal was 4770 fluorescence intensity (a.u.).

Turning to “TCGGCGAGTCGGCGTCGCGTCACTCCCGTGCTCCGGCGACCGGAGTCACCTAGTGCAG”, the binding signal was 3210 fluorescence intensity (a.u.).

For the sequence “ACGGTGGCGGGGATGTGGAGGGAGGTGCAGGGGTGCGGGGCGGAGTCACCTAGTGCAG”, the binding signal is 5180 fluorescence intensity (a.u.).

Consider “TCTTCCAGTAAACCACACCCCAACCACATCTTAGCAATGACGGAGTCACCTAGTGCAG”, for which the binding signal was 3160 fluorescence intensity (a.u.).

For “TGACTGTGAGCTCCAAAACTTTAGATGACATGTACTCCCTCGGAGTCACCTAGTGCAG”, the binding signal was 3690 fluorescence intensity (a.u.).

As to “TGGCGAAGAGCAGTTTTGGCCTAAAAGATATAAAGAATGCCGGAGTCACCTAGTGCAG”, the binding signal was 3210 fluorescence intensity (a.u.).

On to “GAAGAATATTACGCTAGCCGTCGACTACGTGTGAGAGCTCCGGAGTCACCTAGTGCAG”, for which the binding signal is 3990 fluorescence intensity (a.u.).

In the case of “AACTAATATTTAGTTCCTTAATTACATTGAAACTATTTATCGGAGTCACCTAGTGCAG”, the binding signal was 27600 fluorescence intensity (a.u.).

Take “CTCGGAGTCCTTGCCGGCAACTGGACAACCAAGGTGTCCACGGAGTCACCTAGTGCAG”: the binding signal was 3160 fluorescence intensity (a.u.).

Consider “AATCATATGTAAAACATAGATAATTTTATATGGGTGTTAGCGGAGTCACCTAGTGCAG”, for which the binding signal was 3160 fluorescence intensity (a.u.).

As for “ACCTGGATCAACCTGACAATGAGTCAATGACTCAGGATAACGGAGTCACCTAGTGCAG”, the binding signal was 6570 fluorescence intensity (a.u.).

As for “CCAAACCGCCGTCTATATGCAACTTACATGAAAACAATTGCGGAGTCACCTAGTGCAG”, the binding signal was 3530 fluorescence intensity (a.u.).

In the case of “TAAGGTTGAAAATTCAAAATTTAGCTAATAAGTATAAATACGGAGTCACCTAGTGCAG”, the binding signal is 4700 fluorescence intensity (a.u.).

“GAGGTGGCGCACGTCGCGCGCCGACGACGCGCTGAGGTAGCGGAGTCACCTAGTGCAG”: the binding signal is 3580 fluorescence intensity (a.u.).

As for “CGTGCGAGTCGCTCATCAATCACGTCATTCGCCCACACACCGGAGTCACCTAGTGCAG”, the binding signal is 5600 fluorescence intensity (a.u.).

Consider “GACGCGGACGGCGCCGAGCTGCTCAAGCTCGCCCTCGACGCGGAGTCACCTAGTGCAG”, for which the binding signal was 5270 fluorescence intensity (a.u.).

On to “CAAAAGCCTCGCCGCGCACCACCACCCAGCTCTCTCCACTCGGAGTCACCTAGTGCAG”, for which the binding signal is 3640 fluorescence intensity (a.u.).

For “TCTCGTCTCGTGACGAAGTTGTACGAGGTGACGTAGCTAGCGGAGTCACCTAGTGCAG”, the binding signal is 3440 fluorescence intensity (a.u.).

“CCAAATGTAACTATACTAAGAGTCTTTTGACTAGATTTTACGGAGTCACCTAGTGCAG”: the binding signal is 3180 fluorescence intensity (a.u.).

As for “TGAATTCGGACAGCAGTCACCACTCCCTCAGTCCCTCGTCCGGAGTCACCTAGTGCAG”, the binding signal is 3160 fluorescence intensity (a.u.).

Regarding “AACAGGAGACTGGCTACTTACTTGCGCTTCTCCATTTCTGCGGAGTCACCTAGTGCAG”, the binding signal is 21000 fluorescence intensity (a.u.).

In the case of “CGTTGTTCCTTGGGTTAGTCACACATCACCAAAACGATTTCGGAGTCACCTAGTGCAG”, the binding signal is 4490 fluorescence intensity (a.u.).

In the case of “CGCATAGATAGACCATACGTGCCAGGTTGACAGAGTTTCACGGAGTCACCTAGTGCAG”, the binding signal was 3250 fluorescence intensity (a.u.).

For the sequence “TGTGGTAAAGCTTGGGTGTGTAGTGGGTAAGGACCCTGCACGGAGTCACCTAGTGCAG”, the binding signal is 28600 fluorescence intensity (a.u.).

With “GTCTTCTCCACGTCTCTCCCTCCCTCCCTCTCTAGAGCCTCGGAGTCACCTAGTGCAG”, the binding signal was 4096 fluorescence intensity (a.u.).

Regarding “GTATATATACCATAAAATTTTATGGAATTTTATGTAACAACGGAGTCACCTAGTGCAG”, the binding signal is 3300 fluorescence intensity (a.u.).

With “GAGAGAGAGAGGGTGTTCGTACTGGTTGCTCACCGGCGAGCGGAGTCACCTAGTGCAG”, the binding signal is 3230 fluorescence intensity (a.u.).

In the case of “CCTCAGTAGCGAAATCTCTGCCACACCATGGTCTTTTGACCGGAGTCACCTAGTGCAG”, the binding signal was 3570 fluorescence intensity (a.u.).

Turning to “GTGCGAAATCCCATGGCGCTGAAATTAGACACCTCAGCGCCGGAGTCACCTAGTGCAG”, the binding signal is 4160 fluorescence intensity (a.u.).

Turning to “GGATCGACCCTATCCGGTACCTTCAGAGGCCGGCCGTAGGCGGAGTCACCTAGTGCAG”, the binding signal was 3250 fluorescence intensity (a.u.).

In the case of “TGCCGCCGCCGTCGTCACCGTCGCCGCCTCCGTGCTCATGCGGAGTCACCTAGTGCAG”, the binding signal is 6030 fluorescence intensity (a.u.).

In the case of “TGGTGTTTACTGTTACTATTGTTACCATGGATCCACCACCCGGAGTCACCTAGTGCAG”, the binding signal is 3590 fluorescence intensity (a.u.).

Consider “GTAGCCACTGATTTCTAACGTGCTGTCGTTTGCAATGACGCGGAGTCACCTAGTGCAG”, for which the binding signal was 4140 fluorescence intensity (a.u.).

On to “AGTACATTTATTTTGGGCTATTTATTTGTACACGTCAAGACGGAGTCACCTAGTGCAG”, for which the binding signal is 9600 fluorescence intensity (a.u.).
